To fix the notation:
T1: PDHA2 (pyruvate dehydrogenase E1 subunit alpha 2) (mouse (endogenous in testis)) (UniProt P35487)
T1 sequence: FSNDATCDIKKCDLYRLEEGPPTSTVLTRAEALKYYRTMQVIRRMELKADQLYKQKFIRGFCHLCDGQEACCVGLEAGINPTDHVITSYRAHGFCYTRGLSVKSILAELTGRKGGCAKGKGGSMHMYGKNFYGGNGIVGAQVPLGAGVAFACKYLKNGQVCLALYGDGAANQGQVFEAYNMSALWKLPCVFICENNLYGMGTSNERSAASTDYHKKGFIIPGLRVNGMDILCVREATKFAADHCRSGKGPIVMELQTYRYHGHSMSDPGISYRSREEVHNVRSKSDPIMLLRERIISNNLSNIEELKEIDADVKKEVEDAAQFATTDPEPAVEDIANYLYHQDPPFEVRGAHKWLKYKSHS

The chains behind the UniProt entries cited, without tags or fusion partners.
UniProt Q921F2: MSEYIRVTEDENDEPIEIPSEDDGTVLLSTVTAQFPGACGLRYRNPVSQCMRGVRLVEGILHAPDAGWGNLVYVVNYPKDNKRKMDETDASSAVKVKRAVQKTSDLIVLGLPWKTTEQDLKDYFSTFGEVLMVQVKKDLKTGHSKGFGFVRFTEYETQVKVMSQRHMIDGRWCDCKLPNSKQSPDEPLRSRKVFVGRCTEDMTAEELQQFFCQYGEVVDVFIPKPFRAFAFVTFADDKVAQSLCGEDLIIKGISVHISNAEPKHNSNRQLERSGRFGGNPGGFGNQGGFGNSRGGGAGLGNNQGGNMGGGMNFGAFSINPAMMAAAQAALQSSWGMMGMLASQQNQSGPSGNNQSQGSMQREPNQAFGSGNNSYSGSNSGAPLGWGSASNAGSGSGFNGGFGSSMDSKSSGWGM

B1: PDHB (pyruvate dehydrogenase E1 subunit beta) (protein, UniProt Q9D051 31-359)
chain: VQLTVREAINQGMDEELERDEKVFLLGEEVAQYDGAYKVSRGLWKKYGDKRIIDTPISEMGFAGIAVGAAMAGLRPICEFMTFNFSMQAIDQVINSAAKTYYMSAGLQPVPIVFRGPNGASAGVAAQHSQCFAAWYGHCPGLKVVSPWNSEDAKGLIKSAIRDNNPVVMLENELMYGVAFELPAEAQSKDFLIPIGKAKIERQGTHITVVAHSRPVGHCLEAAAVLSKEGIECEVINLRTIRPMDIEAIEASVMKTNHLVTVEGGWPQFGVGAEICARIMEGPAFNFLDAPAVRVTGADVPMPYAKVLEDNSVPQVKDIIFAVKKTLNI
B2: HDAC6 (protein, UniProt Q9Z2V5 1-1149)
chain: MTSTGQDSSTRQRKSRHNPQSPLQESSATLKRGGKKCAVPHSSPNLAEVKKKGKMKKLSQPAEEDLVVGLQGLDLNPETRVPVGTGLVFDEQLNDFHCLWDDSFPESPERLHAIREQLILEGLLGRCVSFQARFAEKEELMLVHSLEYIDLMETTQYMNEGELRVLAETYDSVYLHPNSYSCACLATGSVLRLVDALMGAEIRNGMAVIRPPGHHAQHNLMDGYCMFNHLAVAARYAQKKHRIQRVLIVDWDVHHGQGTQFIFDQDPSVLYFSIHRYEHGRFWPHLKASNWSTIGFGQGQGYTINVPWNQTGMRDADYIAAFLHILLPVASEFQPQLVLVAAGFDALHGDPKGEMAATPAGFAHLTHLLMGLAGGKLILSLEGGYNLRALAKGVSASLHTLLGDPCPMLESCVVPCASAQTSIYCTLEALEPFWEVLERSVETQEEDEVEEAVLEEEEEEGGWEATALPMDTWPLLQNRTGLVYDEKMMSHCNLWDNHHPETPQRILRIMCHLEEVGLAARCLILPARPALDSELLTCHSAEYVEHLRTTEKMKTRDLHREGANFDSIYICPSTFACAKLATGAACRLVEAVLSGEVLNGIAVVRPPGHHAEPNAACGFCFFNSVAVAARHAQIIAGRALRILIVDWDVHHGNGTQHIFEDDPSVLYVSLHRYDRGTFFPMGDEGASSQVGRDAGIGFTVNVPWNGPRMGDADYLAAWHRLVLPIAYEFNPELVLISAGFDAAQGDPLGGCQVTPEGYAHLTHLLMGLAGGRIILILEGGYNLASISESMAACTHSLLGDPPPQLTLLRPPQSGALVSISEVIQVHRKYWRSLRLMKMEDKEECSSSRLVIKKLPPTASPVSAKEMTTPKGKVPEESVRKTIAALPGKESTLGQAKSKMAKAVLAQGQSSEQAAKGTTLDLATSKETVGGATTDLWASAAAPENFPNQTTSVEALGETEPTPPASHTNKQTTGASPLQGVTAQQSLQLGVLSTLELSREAEEAHDSEEGLLGEAAGGQDMNSLMLTQGFGDFNTQDVFYAVTPLSWCPHLMAVCPIPAAGLDVSQPCKTCGTVQENWVCLTCYQVYCSRYVNAHMVCHHEASEHPLVLSCVDLSTWCYVCQAYVHHEDLQDVKNAAHQNKFGEDMPHSH
B3: DLD (protein, UniProt O08749 36-509)
chain: ADQPIEADVTVIGSGPGGYVAAIKSAQLGFKTVCIEKNETLGGTCLNVGCIPSKALLNNSHYYHMAHGKDFASRGIEIPEVRLNLEKMMEQKHSAVKALTGGIAHLFKQNKVVHVNGFGKITGKNQVTATKADGSTQVIDTKNILVATGSEVTPFPGITIDEDTIVSSTGALSLKKVPEKLVVIGAGVIGVELGSVWQRLGADVTAVEFLGHVGGIGIDMEISKNFQRILQRQGFKFKLNTKVTGATKKSDGKIDVSVEAASGGKAEVITCDVLLVCIGRRPFTQNLGLEELGIELDPKGRIPVNNRFQTKIPNIYAIGDVVAGPMLAHKAEDEGIICVEGMAGGAVHIDYNCVPSVIYTHPEVAWVGKSEEQLKEEGIEFKIGKFPFAANSRAKTNADTDGMVKILGHKSTDRVLGAHILGPGAGEMVNEAALALEYGASCEDIARVCHAHPTLSEAFREANLAAAFGKPINF
B4: PDHX (protein, UniProt Q8BKZ9 54-501)
chain: ADPIKVLMPSLSPTMEQGNIVKWLRKEGEAVSAGDSLCEIETDKAVVTLDANDDGILAKIVVEEGAKNIQLGSLIALMVEEGEDWKQVEIPKDVSAPPPVSKPPAPTQPSPQPQIPCPARKEHKGTARFRLSPAARNILEKHSLDASQGTATGPRGIFTKEDALKLVELKQMGKITESRPASAPPPSLSASVPPQATAGPSYPRPMTPPVSIPGQPNAAGTFTEIPASNIRRVIAKRLTESKSTVPHAYATADCDLGAVLKVRRDLVKDDIKVSVNDFIIRAAAVTLKQMPGVNVTWDGEGPKQLPSVDISVAVATDKGLITPIIKDAAAKGIQEIADSVKVLSKKARDGKLMPEEYQGGSFSISNLGMFGIDEFAAVINPPQACILAVGRFRPVLKLTEDEEGNPQLQQHQLITVTMSSDSRVVDDELATRFLETFKANLENPMRLG
B5: PDHA1 (pyruvate dehydrogenase E1 subunit alpha 1) (protein, UniProt P35486 30-390)
chain: FANDATFEIKKCDLHRLEEGPPVTTVLTREDGLKYYRMMQTVRRMELKADQLYKQKIIRGFCHLCDGQEACCVGLEAGINPTDHLITAYRAHGFTFTRGLPVRAILAELTGRRGGCAKGKGGSMHMYAKNFYGGNGIVGAQVPLGAGIALACKYNGKDEVCLTLYGDGAANQGQIFEAYNMAALWKLPCIFICENNRYGMGTSVERAAASTDYYKRGDFIPGLRVDGMDILCVREATKFAAAYCRSGKGPILMELQTYRYHGHSMSDPGVSYRTREEIQEVRSKSDPIMLLKDRMVNSNLASVEELKEIDVEVRKEIEDAAQFATADPEPPLEELGYHIYSSDPPFEVRGANQWIKFKSVS

Results are given in words; binding and its absence hold for the method and conditions named. In cells and extracts the contact can be indirect. These calls come from enrichment with a bait or labelling near it, and not all partners need be listed.

This assay deals with T1, PDHA2 (pyruvate dehydrogenase E1 subunit alpha 2) (mouse (endogenous in testis)). Kind of assay: affinity purification with mass spectrometry; IP with anti-PDHA2 antibody on Dynabeads Protein G from testis lysates of 10-week-old male mice (NP40 lysis buffer, 1 h at 4°C, three washes); LC-MS/MS, MASCOT, Scaffold5.
Take PDK3 (mouse (endogenous in testis)): the binding entry is “binds”.
Then TARDBP (from UniProt Q921F2 1-414), with “binds”; and B1, with “binds”.
Take B2: the binding entry is listed as “binds”.
Then B3, with “binds”.
Then B4, with “binds”; and B5, with “binds”.

The record behind these values is article PMC12377818.
